PubChem BioAssay AID1259254, NCATS – 2017

- Screen: 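Finding genes that stop cells copying their DNA twice in one cycle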 (primary screen)
- Cells: human HCT116 colorectal cancer cells
- Knock-down reagent: single siRNA against human genes
- Timing: 3 days
- Detection: 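Nuclei stained with Hoechst and imaged; cell-cycle phase assigned by DNA content; G2 share scaled per plate, non-targeting siRNA 0%, GMNN siRNA 100%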
- Scale: G2 robust z-score: higher = more G2 cells, more excess DNA replication
- Hit rule: 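An siRNA counts as active if its G2 robust z-score lies at least 5 MADs above the screen median; here such calls match roughly 38% of GMNN control or more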
Shown is an unselected part of about 59,000 deposited reagents. Over the whole deposit, about 1,550 (2.6%) are marked active. 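G2 share is only a proxy for re-replication; each gene was hit by three separate siRNAs, and active genes were retested.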 The numbers tell different reagents against one gene apart. Not all columns of the deposit are shown. Not stated in the record: the amount of reagent.

The opening 2 entries, to show the layout:
OR2M4 (olfactory receptor family 2 subfamily M member 4) #1
- G2 robust z-score: 1.54
- activity call: inactive

OR2M4 (olfactory receptor family 2 subfamily M member 4) #2
- G2 robust z-score: 1.37
- activity call: inactive

The listing, from the first entry:
OR2M4 (olfactory receptor family 2 subfamily M member 4) #1
- G2 robust z-score: 1.54
- activity call: inactive

OR2M4 (olfactory receptor family 2 subfamily M member 4) #2
- G2 robust z-score: 1.37
- activity call: inactive

OR2M4 (olfactory receptor family 2 subfamily M member 4) #3
- G2 robust z-score: -0.505
- activity call: inactive

OR51I2 (olfactory receptor family 51 subfamily I member 2) #1
- G2 robust z-score: 1.31
- activity call: inactive

OR51I2 (olfactory receptor family 51 subfamily I member 2) #2
- G2 robust z-score: 0.582
- activity call: inactive

OR51I2 (olfactory receptor family 51 subfamily I member 2) #3
- G2 robust z-score: 0.231
- activity call: inactive

POLR2B (RNA polymerase II subunit B) #1
- G2 robust z-score: 2.02
- activity call: inactive

POLR2B (RNA polymerase II subunit B) #2
- G2 robust z-score: 3.09
- activity call: inactive

POLR2B (RNA polymerase II subunit B) #3
- G2 robust z-score: 2.15
- activity call: inactive

INHBE (inhibin subunit beta E) #1
- G2 robust z-score: -0.185
- activity call: inactive

INHBE (inhibin subunit beta E) #2
- G2 robust z-score: 0.257
- activity call: inactive

INHBE (inhibin subunit beta E) #3
- G2 robust z-score: 2.92
- activity call: inactive
